# Measured values from the supplement of paper PMC12819154, “High-throughput peptide-centric local stability assay extends protein–ligand identification to membrane proteins, tissues and bacteria” (Nature Structural & Molecular Biology, 2025).
# Protein sequences, listed by entry. Tags and fused reporters are not part of them. Lines headed by an entry give the natural chain unless they say otherwise; changes in a name come on top.
# UniProt Q61464: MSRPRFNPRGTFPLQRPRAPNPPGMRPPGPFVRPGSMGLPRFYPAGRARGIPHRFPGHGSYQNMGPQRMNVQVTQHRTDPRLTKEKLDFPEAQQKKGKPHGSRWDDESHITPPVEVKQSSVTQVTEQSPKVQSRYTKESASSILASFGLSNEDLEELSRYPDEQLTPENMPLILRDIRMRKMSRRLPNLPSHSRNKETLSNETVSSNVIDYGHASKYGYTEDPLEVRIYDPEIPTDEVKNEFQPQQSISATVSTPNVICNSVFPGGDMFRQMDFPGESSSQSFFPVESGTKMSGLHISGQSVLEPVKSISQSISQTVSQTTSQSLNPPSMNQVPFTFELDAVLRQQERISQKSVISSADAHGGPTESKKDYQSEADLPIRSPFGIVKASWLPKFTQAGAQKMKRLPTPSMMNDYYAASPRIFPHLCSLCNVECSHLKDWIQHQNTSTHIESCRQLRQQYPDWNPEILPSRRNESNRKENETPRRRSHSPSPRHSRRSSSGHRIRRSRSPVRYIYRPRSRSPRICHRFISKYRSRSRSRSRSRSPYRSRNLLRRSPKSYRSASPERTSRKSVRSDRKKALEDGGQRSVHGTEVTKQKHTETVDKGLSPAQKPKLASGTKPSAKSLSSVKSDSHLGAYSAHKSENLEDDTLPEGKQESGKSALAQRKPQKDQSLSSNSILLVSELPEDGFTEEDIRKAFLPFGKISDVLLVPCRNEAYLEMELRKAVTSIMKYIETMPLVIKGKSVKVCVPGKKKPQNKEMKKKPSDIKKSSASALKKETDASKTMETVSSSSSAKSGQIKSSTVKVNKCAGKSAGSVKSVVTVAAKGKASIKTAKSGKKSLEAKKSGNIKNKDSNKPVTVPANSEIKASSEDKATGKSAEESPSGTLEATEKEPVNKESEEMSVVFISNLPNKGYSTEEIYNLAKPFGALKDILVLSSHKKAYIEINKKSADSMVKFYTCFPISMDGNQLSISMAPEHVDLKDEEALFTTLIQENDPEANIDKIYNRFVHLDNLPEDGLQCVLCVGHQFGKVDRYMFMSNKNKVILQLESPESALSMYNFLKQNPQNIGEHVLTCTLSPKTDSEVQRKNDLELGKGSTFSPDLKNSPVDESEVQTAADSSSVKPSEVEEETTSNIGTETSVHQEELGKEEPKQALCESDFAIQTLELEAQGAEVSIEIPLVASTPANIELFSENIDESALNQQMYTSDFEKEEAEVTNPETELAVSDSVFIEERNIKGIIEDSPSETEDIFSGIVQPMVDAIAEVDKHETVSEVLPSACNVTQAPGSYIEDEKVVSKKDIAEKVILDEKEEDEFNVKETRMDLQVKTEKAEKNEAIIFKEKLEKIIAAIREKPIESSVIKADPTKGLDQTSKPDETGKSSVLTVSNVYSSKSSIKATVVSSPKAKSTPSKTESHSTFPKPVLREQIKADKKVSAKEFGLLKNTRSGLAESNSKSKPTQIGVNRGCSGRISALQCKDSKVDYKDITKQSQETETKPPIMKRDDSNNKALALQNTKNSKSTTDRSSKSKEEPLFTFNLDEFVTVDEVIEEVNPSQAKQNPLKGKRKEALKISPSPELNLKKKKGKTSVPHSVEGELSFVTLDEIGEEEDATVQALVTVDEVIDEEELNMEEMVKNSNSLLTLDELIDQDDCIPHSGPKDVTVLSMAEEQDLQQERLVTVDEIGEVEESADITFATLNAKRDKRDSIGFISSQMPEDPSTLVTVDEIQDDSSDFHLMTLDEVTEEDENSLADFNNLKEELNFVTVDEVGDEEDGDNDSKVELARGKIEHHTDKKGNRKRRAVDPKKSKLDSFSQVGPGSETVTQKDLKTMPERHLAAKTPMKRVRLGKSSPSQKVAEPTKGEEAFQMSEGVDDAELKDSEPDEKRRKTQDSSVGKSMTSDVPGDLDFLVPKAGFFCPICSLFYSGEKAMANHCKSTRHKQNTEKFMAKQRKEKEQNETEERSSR
# UniProt Q61699: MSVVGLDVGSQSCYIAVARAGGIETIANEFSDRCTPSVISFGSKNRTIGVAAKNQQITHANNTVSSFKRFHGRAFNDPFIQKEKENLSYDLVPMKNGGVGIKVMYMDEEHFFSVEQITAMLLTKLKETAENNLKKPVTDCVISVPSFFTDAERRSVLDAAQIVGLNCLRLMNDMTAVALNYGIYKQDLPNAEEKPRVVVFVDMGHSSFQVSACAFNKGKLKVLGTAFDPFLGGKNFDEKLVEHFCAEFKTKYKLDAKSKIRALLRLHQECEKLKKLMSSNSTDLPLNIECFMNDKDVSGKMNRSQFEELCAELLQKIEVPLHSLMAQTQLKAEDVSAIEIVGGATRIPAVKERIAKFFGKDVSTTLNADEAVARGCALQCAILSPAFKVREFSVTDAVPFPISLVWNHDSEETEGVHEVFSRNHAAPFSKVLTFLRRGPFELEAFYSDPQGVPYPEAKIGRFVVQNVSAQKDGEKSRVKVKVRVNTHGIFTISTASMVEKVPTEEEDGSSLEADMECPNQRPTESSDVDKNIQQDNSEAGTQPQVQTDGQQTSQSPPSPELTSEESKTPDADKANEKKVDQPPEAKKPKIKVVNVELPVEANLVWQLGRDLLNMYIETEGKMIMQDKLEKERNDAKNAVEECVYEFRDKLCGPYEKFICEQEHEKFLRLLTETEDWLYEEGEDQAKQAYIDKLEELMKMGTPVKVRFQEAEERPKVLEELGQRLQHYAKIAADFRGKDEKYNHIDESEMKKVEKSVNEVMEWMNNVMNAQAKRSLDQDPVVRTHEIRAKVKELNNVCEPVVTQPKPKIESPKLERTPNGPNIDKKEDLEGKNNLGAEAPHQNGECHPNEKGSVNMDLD
# UniProt Q61733, whole entry: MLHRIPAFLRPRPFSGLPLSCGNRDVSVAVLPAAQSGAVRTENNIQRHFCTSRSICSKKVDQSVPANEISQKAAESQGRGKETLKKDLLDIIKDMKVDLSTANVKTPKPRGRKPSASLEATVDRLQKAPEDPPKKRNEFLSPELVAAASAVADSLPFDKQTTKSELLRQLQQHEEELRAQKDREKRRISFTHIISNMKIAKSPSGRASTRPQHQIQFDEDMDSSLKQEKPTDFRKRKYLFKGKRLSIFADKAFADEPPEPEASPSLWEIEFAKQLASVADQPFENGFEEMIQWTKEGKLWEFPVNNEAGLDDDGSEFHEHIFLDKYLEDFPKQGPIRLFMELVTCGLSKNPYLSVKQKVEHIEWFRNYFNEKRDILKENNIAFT
# UniProt Q61990, whole entry: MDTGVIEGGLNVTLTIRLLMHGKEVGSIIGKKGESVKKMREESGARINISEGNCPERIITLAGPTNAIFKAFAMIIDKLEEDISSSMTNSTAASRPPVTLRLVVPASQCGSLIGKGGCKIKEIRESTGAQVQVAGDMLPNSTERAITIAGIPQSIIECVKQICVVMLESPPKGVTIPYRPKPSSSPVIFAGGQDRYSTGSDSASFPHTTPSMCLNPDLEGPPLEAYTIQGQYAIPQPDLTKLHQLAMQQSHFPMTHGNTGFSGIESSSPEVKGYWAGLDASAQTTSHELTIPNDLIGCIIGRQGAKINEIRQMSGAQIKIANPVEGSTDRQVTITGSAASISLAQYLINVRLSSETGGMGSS
# UniProt Q61598: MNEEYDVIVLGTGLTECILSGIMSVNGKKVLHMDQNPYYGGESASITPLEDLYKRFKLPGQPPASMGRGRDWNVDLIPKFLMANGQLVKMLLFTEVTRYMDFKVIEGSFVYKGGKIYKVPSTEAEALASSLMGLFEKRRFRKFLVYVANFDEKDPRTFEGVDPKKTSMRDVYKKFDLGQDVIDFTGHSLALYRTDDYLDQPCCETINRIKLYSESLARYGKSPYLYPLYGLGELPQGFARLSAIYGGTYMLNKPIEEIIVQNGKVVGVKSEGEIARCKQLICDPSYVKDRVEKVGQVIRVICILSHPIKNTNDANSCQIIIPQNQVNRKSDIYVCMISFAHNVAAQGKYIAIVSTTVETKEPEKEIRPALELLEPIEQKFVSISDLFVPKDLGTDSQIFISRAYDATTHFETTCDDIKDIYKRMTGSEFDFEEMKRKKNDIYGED
# UniProt Q61656: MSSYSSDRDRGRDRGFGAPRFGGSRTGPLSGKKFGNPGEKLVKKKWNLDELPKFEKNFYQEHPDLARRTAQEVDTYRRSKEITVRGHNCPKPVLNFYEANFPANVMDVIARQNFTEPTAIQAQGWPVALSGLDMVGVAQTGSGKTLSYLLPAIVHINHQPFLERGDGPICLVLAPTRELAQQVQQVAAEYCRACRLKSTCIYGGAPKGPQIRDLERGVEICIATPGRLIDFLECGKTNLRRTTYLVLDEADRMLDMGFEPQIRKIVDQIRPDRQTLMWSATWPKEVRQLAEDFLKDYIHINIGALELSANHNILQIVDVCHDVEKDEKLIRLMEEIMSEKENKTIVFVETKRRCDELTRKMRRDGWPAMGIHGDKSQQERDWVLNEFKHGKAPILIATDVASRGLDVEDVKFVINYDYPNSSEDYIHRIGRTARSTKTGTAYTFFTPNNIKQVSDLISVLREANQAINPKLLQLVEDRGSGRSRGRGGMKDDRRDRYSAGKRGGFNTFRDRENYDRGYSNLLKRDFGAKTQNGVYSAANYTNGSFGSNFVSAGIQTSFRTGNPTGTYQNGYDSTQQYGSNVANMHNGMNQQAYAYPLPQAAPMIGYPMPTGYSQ
# UniProt Q60989, whole entry: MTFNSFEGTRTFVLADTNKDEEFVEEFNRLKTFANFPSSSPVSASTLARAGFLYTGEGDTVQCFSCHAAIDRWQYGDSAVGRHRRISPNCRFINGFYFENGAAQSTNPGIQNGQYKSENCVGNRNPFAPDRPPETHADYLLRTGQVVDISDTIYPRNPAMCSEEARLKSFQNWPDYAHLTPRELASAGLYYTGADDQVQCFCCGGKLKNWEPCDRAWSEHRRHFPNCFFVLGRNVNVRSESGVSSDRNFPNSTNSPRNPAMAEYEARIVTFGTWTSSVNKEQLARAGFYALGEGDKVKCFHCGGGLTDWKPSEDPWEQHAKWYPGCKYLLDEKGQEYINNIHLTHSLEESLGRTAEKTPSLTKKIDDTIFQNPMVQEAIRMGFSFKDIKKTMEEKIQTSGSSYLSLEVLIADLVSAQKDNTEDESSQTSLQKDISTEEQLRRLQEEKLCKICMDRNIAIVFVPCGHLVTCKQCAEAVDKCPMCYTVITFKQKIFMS
# UniProt Q6A068: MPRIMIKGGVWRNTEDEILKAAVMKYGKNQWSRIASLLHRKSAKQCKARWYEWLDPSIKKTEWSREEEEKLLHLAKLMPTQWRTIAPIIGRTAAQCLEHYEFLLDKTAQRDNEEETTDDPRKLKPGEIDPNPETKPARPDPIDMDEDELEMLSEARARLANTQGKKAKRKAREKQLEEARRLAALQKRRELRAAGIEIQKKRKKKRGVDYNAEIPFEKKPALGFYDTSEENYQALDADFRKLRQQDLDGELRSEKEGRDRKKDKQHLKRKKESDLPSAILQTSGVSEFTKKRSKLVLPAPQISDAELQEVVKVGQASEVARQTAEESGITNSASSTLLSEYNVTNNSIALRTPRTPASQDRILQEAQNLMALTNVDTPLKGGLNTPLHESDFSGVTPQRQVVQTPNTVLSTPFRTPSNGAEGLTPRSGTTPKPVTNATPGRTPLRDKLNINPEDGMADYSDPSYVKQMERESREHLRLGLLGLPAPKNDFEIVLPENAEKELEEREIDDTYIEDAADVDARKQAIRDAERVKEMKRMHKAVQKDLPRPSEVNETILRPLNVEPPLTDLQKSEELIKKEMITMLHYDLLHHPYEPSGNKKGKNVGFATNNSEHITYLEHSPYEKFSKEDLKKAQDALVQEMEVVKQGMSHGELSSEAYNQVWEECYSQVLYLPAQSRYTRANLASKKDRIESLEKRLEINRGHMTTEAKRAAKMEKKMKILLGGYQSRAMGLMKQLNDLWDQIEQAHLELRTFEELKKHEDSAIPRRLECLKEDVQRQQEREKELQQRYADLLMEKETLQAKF
# UniProt Q61510, whole entry: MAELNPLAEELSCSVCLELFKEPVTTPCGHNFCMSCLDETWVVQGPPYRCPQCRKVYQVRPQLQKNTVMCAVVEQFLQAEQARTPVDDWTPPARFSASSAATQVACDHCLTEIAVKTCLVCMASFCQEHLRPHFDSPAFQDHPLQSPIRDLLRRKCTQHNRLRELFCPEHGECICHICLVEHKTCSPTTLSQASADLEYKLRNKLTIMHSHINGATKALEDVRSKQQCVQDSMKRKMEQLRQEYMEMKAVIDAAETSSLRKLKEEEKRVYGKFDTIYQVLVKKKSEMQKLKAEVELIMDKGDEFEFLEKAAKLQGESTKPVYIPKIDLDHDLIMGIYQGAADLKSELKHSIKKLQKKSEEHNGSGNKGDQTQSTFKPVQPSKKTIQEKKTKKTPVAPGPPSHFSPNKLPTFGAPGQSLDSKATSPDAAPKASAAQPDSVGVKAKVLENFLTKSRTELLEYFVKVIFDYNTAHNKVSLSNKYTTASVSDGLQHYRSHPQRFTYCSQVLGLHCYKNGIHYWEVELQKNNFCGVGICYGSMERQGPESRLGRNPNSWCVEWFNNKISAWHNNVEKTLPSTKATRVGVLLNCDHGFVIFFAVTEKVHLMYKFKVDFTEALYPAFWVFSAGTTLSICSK
# The other results are listed elsewhere or left out. Most entries show no effect beyond the scatter of the controls.
# Compound: CN[C@@H]1C[C@H]2O[C@@](C)([C@@H]1OC)n1c3ccccc3c3c4c(c5c6ccccc6n2c5c31)C(=O)NC4 [staurosporine]
# Assay: log2 fold change of pooled soluble protein (PISA), ligand vs vehicle (log2 ratio); higher = more thermally stabilized
# Conditions: ligand concentration: 20 uM; assay format: PISA pool 52.9/55.5/58.6 C
row,Target,log2 fold change of pooled soluble protein
1,UniProt Q5UAK0,-0.00995
2,UniProt Q61599,0.102
3,UniProt Q69ZW3,0.045
4,UniProt Q61316,-0.00384
5,UniProt Q61464,-0.0603
6,UniProt Q61699,-0.0413
7,UniProt Q6IQX8,-0.104
8,UniProt Q61733,0.0765
9,UniProt Q61990,-0.0867
10,UniProt Q64435,-0.00674
11,UniProt Q61207,-0.0133
12,UniProt Q62426,-0.0151
13,UniProt Q64481,0.149
14,UniProt Q61598,-0.0595
15,UniProt Q62446,0.0531
16,UniProt Q61026,0.0455
17,UniProt Q60759,-0.0375
18,UniProt Q61656,-0.0169

row,Target,log2 fold change of pooled soluble protein
1,UniProt Q5YD48,-0.00839
2,UniProt Q60989,0.0698
3,UniProt Q60854,0.064
4,UniProt Q6A068,-0.219
5,UniProt Q64152,-0.168
6,UniProt Q640N2,-0.133
7,UniProt Q5SSH7,0.0537
8,UniProt Q6GQT9,-0.125
9,UniProt Q60676,0.0195
10,UniProt Q64310,-0.51
11,UniProt Q6DFX2,-0.27
12,UniProt Q62351,0.0198
13,UniProt Q6NVE8,0.0185
14,UniProt Q61069,-0.0735
15,UniProt Q61510,-0.0554
16,UniProt Q5SX79,-0.069
17,UniProt Q61768,-0.1
18,UniProt Q62463,-0.031

# Single entries from the results shown:
# Entry for UniProt Q61768 under log2 fold change of pooled soluble protein: -0.1
# Entry for UniProt Q5SX79 under log2 fold change of pooled soluble protein: -0.069
# Entry for UniProt Q60676 under log2 fold change of pooled soluble protein: 0.0195
